# Library screening results

Protein sequences, listed by entry. Tags and fused reporters are not part of them.
UniProt E9BF75, entry or part of it: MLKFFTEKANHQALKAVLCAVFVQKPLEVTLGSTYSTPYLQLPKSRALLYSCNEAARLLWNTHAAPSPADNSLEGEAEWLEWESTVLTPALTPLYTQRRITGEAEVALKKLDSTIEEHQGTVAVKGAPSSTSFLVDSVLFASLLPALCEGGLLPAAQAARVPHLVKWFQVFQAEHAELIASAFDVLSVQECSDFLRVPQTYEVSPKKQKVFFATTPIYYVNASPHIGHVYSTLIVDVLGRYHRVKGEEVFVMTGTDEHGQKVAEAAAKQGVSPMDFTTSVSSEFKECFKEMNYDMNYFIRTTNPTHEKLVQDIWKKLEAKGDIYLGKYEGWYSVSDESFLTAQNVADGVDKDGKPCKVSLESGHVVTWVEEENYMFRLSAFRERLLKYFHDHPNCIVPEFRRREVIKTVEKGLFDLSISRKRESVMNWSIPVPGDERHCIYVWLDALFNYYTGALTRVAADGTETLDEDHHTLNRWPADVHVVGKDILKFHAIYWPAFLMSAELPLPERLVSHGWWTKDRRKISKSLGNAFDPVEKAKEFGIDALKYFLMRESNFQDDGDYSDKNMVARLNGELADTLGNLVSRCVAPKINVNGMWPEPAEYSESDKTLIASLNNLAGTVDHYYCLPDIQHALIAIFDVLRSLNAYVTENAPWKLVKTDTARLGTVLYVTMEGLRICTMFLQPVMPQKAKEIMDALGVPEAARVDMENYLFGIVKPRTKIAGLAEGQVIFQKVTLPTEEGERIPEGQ

LdMetRS: 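Methionyl-tRNA synthetase (putative), Leishmania donovani (UniProt E9BF75). Primary screen of methionyl-tRNA synthetase; the read-out is not stated. The test concentration is not given. Values are per cent inhibition. About 68,000 compounds were tested under these conditions; 0.035% (about 24) showed 50% or more at least once.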
Mtb heat-shock: 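Assay on Mycobacterium tuberculosis, filed only as a heat shock assay from Cornell; the read-out is not stated. The concentration is filed as 10 mM, unlikely as a test dose, so the dose is not known. The record gives no direction; compounds that gave an IC50 in retests scored well above the rest, so higher reads as stronger inhibition. About 69,000 compounds were tested under these conditions; 1.4% (about 930) showed 50% or more at least once.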

Results are percentages, as filed.
The record does not define 0% and 100%; most values in the screen are far below 50% and negative numbers occur (in some assays of this library far below -100).
This is an unselected part of the compounds tested.
A dash means the value is not listed here; it may have been measured.

[H][C@]12CN(C(=O)NC(C)C)CCN1C(=O)N(Cc1ccc(F)cc1)C2 gave Mtb heat-shock: -33.62%.
CC(C)(C)c1noc(CCC(=O)N2CCN(Cc3ccco3)CC2)n1 gave LdMetRS: 15.47%; Mtb heat-shock: 12.07%.
[H][C@@]12COC[C@]1(COc1nccc(C)n1)CN(C(=O)C1=CCCCC1)C2 gave Mtb heat-shock: -20.35%.
COc1ccc2c(ccn2CCN)c1 gave LdMetRS: 12.03%; Mtb heat-shock: 27.19%.
CC(C)NCC1OCCc2cn(C)nc21.O=C(O)C(F)(F)F (stereo not shown) gave Mtb heat-shock: -2.964%.
COc1ccc(C2CNCCN2C(=O)c2cccc3ncccc23)cc1 (stereo not shown) gave LdMetRS: 11.17%; Mtb heat-shock: 5.226%.
Cc1csc(CCCNC(C)CC(=O)Nc2ccc(F)cc2)n1 (stereo not shown) gave LdMetRS: 6.183%; Mtb heat-shock: 2.482%.
Cc1ccc(S(=O)(=O)NCC(C)(C)N)c(F)c1 gave LdMetRS: 12.91%.
CS(=O)(=O)N1CCCC12CCN(Cc1nccs1)CC2 gave LdMetRS: 8.651%.
O=C1NCC2(CCCN(Cc3ccccc3F)C2)Oc2ccccc21 (stereo not shown) gave LdMetRS: 10.62%; Mtb heat-shock: -1.126%.
Cn1nnnc1SCC1(O)CCCCC1 gave LdMetRS: 13.01%; Mtb heat-shock: 12.18%.
CCCNC(=O)C1CCCN(Cc2csc(C(C)(C)C)n2)C1 (stereo not shown) gave LdMetRS: 13.24%; Mtb heat-shock: -12.61%.
CC(Cn1cccn1)NCC(=O)NC1CCOCC1 (stereo not shown) gave LdMetRS: 14.49%; Mtb heat-shock: 10.95%.
Cn1cc(C(=O)N2CCN(Cc3ccccn3)CC2)ccc1=O gave LdMetRS: 2.419%; Mtb heat-shock: -11.84%.
CC(C)N1CCOCC2(CN(Cc3nccs3)CCO2)C1 (stereo not shown) gave LdMetRS: 15.69%.
CS(=O)(=O)CCCC(=O)N1CCN(CC2CC2)c2ccccc21 gave LdMetRS: 19.55%; Mtb heat-shock: -28.2%.
O=C(O)C(F)(F)F.O=C(O)C(F)(F)F.[H][C@@]12OCCN(Cc3scnc3C)[C@@]1([H])CC[C@H]2Oc1ccccn1 gave Mtb heat-shock: -26.93%.
C[S+]([O-])c1nncn1CC(=O)c1cccc(C(F)(F)F)c1 (stereo not shown) gave LdMetRS: 11.39%; Mtb heat-shock: 33.96%.
COc1ccc(C(=O)N2C[C@@H](O)[C@H](NCc3ncccc3C)C2)cc1 gave LdMetRS: 17.78%; Mtb heat-shock: 32.06%.
CN(Cc1nc2ccccc2s1)C1CCCN(c2cccnn2)C1 (stereo not shown) gave LdMetRS: 21.41%; Mtb heat-shock: 19.07%.
O=C(c1ccco1)N1CCC(CSCc2ccco2)CC1 gave LdMetRS: 15.22%; Mtb heat-shock: 15.4%.
COCCCN(C)c1cc(C(F)(F)F)nc(-c2cccnc2)n1 gave LdMetRS: 28.65%; Mtb heat-shock: -8.201%.
CCc1cnc(C)nc1NC1CC(=O)N(CC2CCCCC2)C1 (stereo not shown) gave LdMetRS: 11.76%; Mtb heat-shock: -10.8%.
O=C(O)c1cc2c(nc1-c1ccncc1)CCN(Cc1ccoc1)CC2 gave LdMetRS: 6.032%; Mtb heat-shock: 8.317%.
COc1ccc(-c2nc(CCNC(=O)NC3CCC(O)CC3)co2)cc1 (stereo not shown) gave LdMetRS: 6.266%; Mtb heat-shock: -15.59%.
Cc1nc(C)c(COc2ccc(N(C)S(C)(=O)=O)cc2)s1 gave LdMetRS: 6.516%; Mtb heat-shock: -5.669%.
CN(Cc1ccsc1)C(=O)CS(=O)(=O)Cc1ccc(Cl)c(Cl)c1 gave LdMetRS: 17.36%; Mtb heat-shock: 18.54%.
O=C(O)C(F)(F)F.[H][C@@]12CN(Cc3ccc4c(c3)OCO4)C[C@@H](C(=O)NC3CC3)[C@]1([H])CCO2 gave Mtb heat-shock: -27.23%.
CCS(=O)(=O)N1CCN(C(=O)c2ccc(Cn3cc(Br)cn3)cc2)CC1 gave LdMetRS: 9.023%; Mtb heat-shock: -6.444%.
CC(NCC1CCN(CCO)CC1)c1ccc(OC(F)(F)F)cc1 (stereo not shown) gave LdMetRS: 15.32%; Mtb heat-shock: -0.5427%.
CC(C)CNC(=O)N1C[C@H]2C[C@H](C(=O)NCc3ccccc3)[C@@H](C1)O2 gave LdMetRS: 8.497%.
Cn1cnnc1C1CCCN(C(=O)NCc2ccccn2)C1 (stereo not shown) gave LdMetRS: 2.841%; Mtb heat-shock: -2.054%.
CCC(=O)c1ccccc1NN1c2ccccc2C(=O)C1(C)OC (stereo not shown) gave LdMetRS: 17%; Mtb heat-shock: 16.3%.
COc1ccc(CCN2CCOC(Cn3nc(C)nc3C)C2)cc1 (stereo not shown) gave LdMetRS: 19.06%; Mtb heat-shock: -30.16%.
CC(CCO)Nc1cccc(C(F)(F)F)n1 (stereo not shown) gave LdMetRS: 14.65%; Mtb heat-shock: -24.21%.
CCN(C(=O)Nc1nccs1)C(C)c1cccc(O)c1 (stereo not shown) gave LdMetRS: 6.866%; Mtb heat-shock: 2.148%.
O=C(c1ccc2[nH]ccc2c1)N1CCn2cc(CN3CCCC3)nc2C1 gave LdMetRS: 14.93%; Mtb heat-shock: -3.744%.
Cc1nn(C)c(C)c1NC(=O)CCn1ncc2ccccc21 gave LdMetRS: -45.48%; Mtb heat-shock: -8.161%.
O=c1c(CN2CCSCC2)coc(O)c1CN1CCCC1 gave LdMetRS: 9.162%; Mtb heat-shock: -12.69%.
CC(C)COC(C)C(=O)NCc1ccc(F)cc1 (stereo not shown) gave LdMetRS: 22.65%; Mtb heat-shock: 14.42%.
CC1CCc2[nH]c(=O)c(C(=O)N3CCc4ccccc4C3)cc2C1 (stereo not shown) gave LdMetRS: 19.83%; Mtb heat-shock: 10.68%.
O=C(O)C(F)(F)F.O=C(O)C(F)(F)F.[H][C@]12CCN(C(C)C)C[C@@]1([H])CN(Cc1cccnc1OC)C2 gave Mtb heat-shock: 11.96%.
Cc1cc(-c2cnc(C)nc2CN(C)C(=O)c2cc(C3CC3)on2)on1 gave LdMetRS: 10.97%; Mtb heat-shock: 2.769%.
Cc1ccc(N2CC3(COCCN(Cc4cccnc4)C3)OCC2=O)s1.O=C(O)C(F)(F)F.O=C(O)C(F)(F)F (stereo not shown) gave Mtb heat-shock: -5.856%.

The first 3 entries again:

| compound | LdMetRS | Mtb heat-shock |
|---|---|---|
| `[H][C@]12CN(C(=O)NC(C)C)CCN1C(=O)N(Cc1ccc(F)cc1)C2` | - | -33.62 |
| `CC(C)(C)c1noc(CCC(=O)N2CCN(Cc3ccco3)CC2)n1` | 15.47 | 12.07 |
| `[H][C@@]12COC[C@]1(COc1nccc(C)n1)CN(C(=O)C1=CCCCC1)C2` | - | -20.35 |

Source: ChEMBL document CHEMBL3988442, “University of Dundee, Small-Polar-MMV Screening Library” (2021).